Counter-ions that a name gives are not always drawn. ± gives the standard deviation of the averaged measurements. This is one part of the list. Most values lie within the scatter of the assay; repeated measurements hardly agree.
These compounds were tested on A549 (assay: surface PD-L1 immunofluorescence intensity relative to IFN-gamma-only control (ratio); higher = more PD-L1 expression). Settings: 10 µM; exposure time 24 h; IFN-gamma 100 ng/mL.

| Structure (SMILES) | surface PD-L1 immunofluorescence intensity |
| --- | --- |
| C[C@]12CC[C@H](O)C[C@@H]1CC[C@@H]1[C@@H]2CC[C@]2(C)C(=O)CC[C@@H]12 [Epiandrosterone] | 1 |
| C[C@]12CC[C@H](O)C[C@@H]1CC[C@@H]1[C@@H]2CC[C@]2(C)C(=O)CC[C@@H]12 | 1.04 |
| Cn1cc(C(=O)C(=O)N[C@H]2CN3CCC2CC3)c2ccccc21 | 1.03 |
| N[C@@]1(C(=O)O)CC[C@@H](C(=O)O)C1 | 1.15 |
| CCn1cc(C(=O)O)c(=O)c2cc3c(cc21)OCO3 [Oxolinic acid] | 0.867 |
| CN(C)C(=O)Oc1cc(OC(=O)N(C)C)cc(C(O)CNC(C)(C)C)c1 (stereo not given) [Bambuterol hydrochloride] | 0.957 |
| CC[C@@]1([C@@H]2O[C@@H]([C@H]3O[C@@](O)(CO)[C@H](C)C[C@@H]3C)C[C@@H]2C)CC[C@H]([C@]2(C)CC[C@]3(C[C@H](O)[C@@H](C)[C@@H]([C@@H](C)[C@@H](OC)[C@H](C)C(=O)O)O3)O2)O1 [Monensin sodium salt (Coban)] | 0.966 |
| CCN(C)C(=O)Oc1cccc([C@H](C)N(C)C)c1 [Rivastigmine] | 1.08 |
| CCC1(c2ccc(N)cc2)CCC(=O)NC1=O (stereo not given) [Glutethimide, para-amino] | 0.894 |
| CN1[C@@H]2CC[C@H]1C[C@@H](OC1c3ccccc3CCc3ccccc31)C2 [Deptropine citrate] | 1.01 |
| NCC(O)c1ccc(O)cc1 (racemic) [(+,-)-Octopamine hydrochloride] | 1.05 |
| Cc1nc(N)sc1CCN [Amthamine dihydrobromide] | 1.08 |
| CN1CCC(c2c[nH]c3ccc(O)cc23)CC1 | 1.1 |
| CC(C)[C@@]1(NC(=O)[C@@H]2C[C@@H]3c4cccc5[nH]cc(c45)C[C@H]3N(C)C2)O[C@@]2(O)[C@@H]3CCCN3C(=O)[C@H](Cc3ccccc3)N2C1=O [Dihydroergocristine mesylate] | 0.998 |
| CC(=O)C1=C(O)[C@@H]2[C@H]3c4c[nH]c5cccc(c45)C[C@H]3C(C)(C)N2C1=O [Cyclopiazonic acid] | 1.05 |
| CC(N)Cc1c[nH]c2ccc(OCc3cccs3)cc12 (stereo not given) [BW 723C86 hydrochloride] | 1.06 |
| C1=C2CCCN[C@H]2[C@@H]2C[C@H]1[C@H]1CCCCN1C2 [Aloperine] | 0.999 |
| CCN[C@@H](C)Cc1cccc(C(F)(F)F)c1 [Dexfenfluramine hydrochloride] | 1 |
| CC(C)[C@@]1(O)[C@@H](OC(=O)c2ccc[nH]2)[C@@]2(O)[C@@]3(C)C[C@]4(O)O[C@@]5([C@H](O)[C@@H](C)CC[C@]35O)[C@@]2(O)[C@@]14C [Ryanodine] | 1.02 |
| COc1ccc(CNC(=O)/C=C/c2ccc3[nH]cc(CCN(C)C)c3c2)cc1 | 0.891 |
| C[CH2][Hg][S]c1ccccc1C(=O)[O-].[Na+] [Thimerosal] | 1.03 |
| C[N+](C)(C)CC#CCN1CCCC1=O [Oxotremorine M] | 1.1 |
| CN(C)Cc1c[nH]c2ccccc12 [Gramine] | 1.09 |
| C[N+]1(C)CCOC(O)(c2ccc(-c3ccc(C4(O)C[N+](C)(C)CCO4)cc3)cc2)C1 (stereo not given) [Hemicholinium bromide] | 0.941 |
| COc1cc2c(cc1O)C(CCc1ccc(Cl)cc1)N(C)CC2 (stereo not given) | 0.988 |

Copied from the listing (four entries):

| Structure (SMILES) | surface PD-L1 immunofluorescence intensity |
| --- | --- |
| CC(C)[C@@]1(O)[C@@H](OC(=O)c2ccc[nH]2)[C@@]2(O)[C@@]3(C)C[C@]4(O)O[C@@]5([C@H](O)[C@@H](C)CC[C@]35O)[C@@]2(O)[C@@]14C [Ryanodine] | 1.02 |
| COc1ccc(CNC(=O)/C=C/c2ccc3[nH]cc(CCN(C)C)c3c2)cc1 | 0.891 |
| C[CH2][Hg][S]c1ccccc1C(=O)[O-].[Na+] [Thimerosal] | 1.03 |
| C[N+](C)(C)CC#CCN1CCCC1=O [Oxotremorine M] | 1.1 |

More results.

| Structure (SMILES) | surface PD-L1 immunofluorescence intensity |
| --- | --- |
| COc1ccc(-n2nc(C(F)(F)F)cc2-c2ccc(Cl)cc2)cc1 | 1.05 |
| Nc1ccncc1 [4-Aminopyridine] | 1.03 ± 0.011 |
| C[C@]12CCC(=O)C=C1CC[C@@H]1[C@@H]2C(=O)C[C@]2(C)C(=O)CC[C@@H]12 [Adrenosterone] | 0.988 |
| O=P(O)(O)Cc1ccccc1 [Benzylphosphonic acid] | 1.04 |
| Cc1ncc(CN2CC=C(c3ccccc3)CC2)c(N)n1 | 1.02 |
| Cc1[nH]c2ccc(O)cc2c1CCN [2-Methyl-5-hydroxytryptamine hydrochloride] | 1 |
| COc1ccc(C(=O)N2CCCC2=O)cc1 [Aniracetam] | 0.942 ± 0.13 |
| CC1(C)CCCC(C)(C)N1[O] | 0.915 |
| CC(C(=O)OC1CC2CCC(C1)N2C)c1ccc(Br)cc1 (stereo not given) [PG-9 maleate] | 1.12 |
| O=C(O[C@H]1C[C@H]2CC[C@@H](C1)[N+]21CCCC1)C(O)(c1ccccc1)c1ccccc1 [Trospium chloride (Sanctura)] | 0.838 |
| NCC(CS(=O)(=O)O)c1ccc(Cl)cc1 (stereo not given) [Saclofen] | 1.07 |
| CC[C@@H](C(N)=O)N1CCCC1=O [Levetiracetam] | 0.993 |
| O=Cc1cn(Cc2ccc(Cl)cc2)c2ccccc12 [Oncrasin 1] | 0.951 |
| c1cc(Cc2cnc[nH]2)ccn1 [Immethridine dihydrobromide] | 0.941 |
| Oc1ccc2c3c1O[C@H]1c4[nH]c5c(c4C[C@@]4(O)[C@@H](C2)N(CC2CC2)CC[C@]314)C[C@@]1(O)[C@H]2Cc3ccc(O)c4c3[C@@]1(CCN2CC1CC1)[C@H]5O4 [nor-Binaltorphimine dihydrochloride] | 1.02 |
| CCCN1C[C@H](CSC)C[C@@H]2c3cccc4[nH]cc(c34)C[C@H]21 [Pergolide mesylate] | 0.953 ± 0.024 |
| N.N.[Cl][Pt][Cl] [Cisplatin] | 1 |
| C[N+]1(C)CCc2cc3c(cc2C1C1OC(=O)c2c1ccc1c2OCO1)OCO3 (single isomer, unassigned; (-)) [(-)-Bicuculline methobromide] | 0.965 |
| CCC(=O)O[C@@](Cc1ccccc1)(c1ccccc1)[C@@H](C)CN(C)C [Levopropoxyphene napsylate] | 1.07 |
| CN1c2ccccc2C(NCCCCCCC(=O)O)c2ccc(Cl)cc2S1(=O)=O (stereo not given) [Tianeptine sodium] | 1.04 |
| CN1c2ccccc2C(NCCCCCCC(=O)O)c2ccc(Cl)cc2S1(=O)=O (stereo not given) [Tianeptine] | 0.966 |
| CN1CCN(c2ccc([N+](=O)[O-])c3no[n+]([O-])c23)CC1 | 1.07 |
| N#Cc1nn(-c2c(Cl)cc(C(F)(F)F)cc2Cl)c(N)c1[S+]([O-])C(F)(F)F (stereo not given) [Fipronil] | 0.883 |
| CC(C)C[C@@H](N)C1(c2ccc(Cl)cc2)CCC1 | 0.898 |
| CCCN(C/C=C/I)C1CCc2ccc(O)cc2C1 (stereo not given) [7-Hydroxy-PIPAT maleate] | 1.09 |
